We go through four molecules from paper PMC9511784.

Sequences of proteins named here, by UniProt entry; tags and fusion partners are left off.
UniProt P51149: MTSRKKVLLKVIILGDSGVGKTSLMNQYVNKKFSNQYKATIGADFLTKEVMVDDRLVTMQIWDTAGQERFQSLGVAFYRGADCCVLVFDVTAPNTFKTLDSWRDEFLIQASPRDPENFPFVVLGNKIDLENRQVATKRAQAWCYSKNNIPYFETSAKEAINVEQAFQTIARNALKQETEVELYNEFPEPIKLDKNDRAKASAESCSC
UniProt P51148: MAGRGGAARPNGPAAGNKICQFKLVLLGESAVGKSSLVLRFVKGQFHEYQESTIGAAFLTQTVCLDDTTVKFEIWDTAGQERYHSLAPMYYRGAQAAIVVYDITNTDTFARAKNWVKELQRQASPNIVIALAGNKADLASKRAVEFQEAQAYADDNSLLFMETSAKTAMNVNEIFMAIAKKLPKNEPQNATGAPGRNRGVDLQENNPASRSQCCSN

These are yes or no findings as the source states them, for the method shown. In cells and extracts the contact can be indirect. These calls come from enrichment with a bait or labelling near it, and not all partners need be listed. Sequences can lack the tags named with a protein.

In this test the target is T1, myc-tagged full length GSDMB (Gasdermin B) (human) (UniProt Q8TAX9).
T1 sequence: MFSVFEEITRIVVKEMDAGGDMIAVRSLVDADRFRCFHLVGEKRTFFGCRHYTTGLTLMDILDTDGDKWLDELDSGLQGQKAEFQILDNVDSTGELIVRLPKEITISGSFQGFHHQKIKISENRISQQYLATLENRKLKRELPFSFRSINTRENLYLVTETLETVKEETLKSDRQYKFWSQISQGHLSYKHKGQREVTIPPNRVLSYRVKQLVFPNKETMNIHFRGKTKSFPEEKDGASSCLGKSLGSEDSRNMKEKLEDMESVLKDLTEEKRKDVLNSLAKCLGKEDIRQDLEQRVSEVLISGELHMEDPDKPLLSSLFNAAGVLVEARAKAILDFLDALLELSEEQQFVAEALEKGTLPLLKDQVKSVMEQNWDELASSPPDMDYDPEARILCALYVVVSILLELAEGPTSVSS
In words: affinity purification with mass spectrometry; HCC1954 GB cells untreated or treated with lapatinib, CQ or both; immunoprecipitated with a Myc-tag antibody, then mass spectrometry.

With “Ras-related protein Rab-7 (Rab7a) (from UniProt P51149 1-207)”, the binding result is given as “binds”. As for Rab5C (from UniProt P51148 1-216), the entry is “binds”.

B1: Rab9A (protein, UniProt P51151 1-201)
chain: MAGKSSLFKVILLGDGGVGKSSLMNRYVTNKFDTQLFHTIGVEFLNKDLEVDGHFVTMQIWDTAGQERFRSLRTPFYRGSDCCLLTFSVDDSQSFQNLSNWKKEFIYYADVKEPESFPFVILGNKIDISERQVSTEEAQAWCRDNGDYPYFETSAKDATNVAAAFEEAVRRVLATEDRSDHLIQTDTVNLHRKPKPSSSCC
Turning to B1, the binding entry is given as “binds”.

B2: Rab15 (protein, UniProt P59190 1-212)
chain: MAKQYDVLFRLLLIGDSGVGKTCLLCRFTDNEFHSSHISTIGVDFKMKTIEVDGIKVRIQIWDTAGQERYQTITKQYYRRAQGIFLVYDISSERSYQHIMKWVSDVDEYAPEGVQKILIGNKADEEQKRQVGREQGQQLAKEYGMDFYETSACTNLNIKESFTRLTELVLQAHRKELEGLRMRASNELALAELEEEEGKPEGPANSSKTCWC
Regarding B2, the binding result was “binds”.
